Laboratory results from patent publication US20260151517A1, “SOMATOSTATIN RECEPTOR-TARGETING RADIOPHARMACEUTICALS AND USES THEREOF” (Nuclidium AG, priority 2024, published 2026).
At least one peptide structure holds a part that was inferred or is arguable (an end, a ring closure or a residue). *1 amine or outer side, *2 acyl side, *3 side chain or, on linkers, in order; H or OH if unused. Where a SMILES comes first, the peptide text is derived from it. Bridges are numbered along the chain shown (N, C = ends). [ ]: non-standard residue; d: D form. The star is where a group is joined. NODAGA = O=C(O)CN1CCN(CC(=O)O)CCN(C(CCC(=O)*)C(=O)O)CC1; X1 = NC(=O)Nc1ccc(CC(N[*:1])C(=O)[*:2])cc1; Phe(4-Cl) = N[CH](Cc1ccc(Cl)cc1)C(=O)O

Test system: well-differentiated BP and GEP neuroendocrine tumors (NET)
Test: Human clinical trial, PET/CT imaging vs [^68Ga]Ga-DOTATOC PET/CT
Type: in vivo
Conditions: Subjects 1-4 and 6
Procedure: The study will be a prospective, open-label, controlled, reader-blind, single center, phase I/II PET/CT study.
The study product will be a single intravenous administration of GMP produced [^61Cu]Cu-NODAGA-LM3 followed by up to three PET/CT acquisitions. [^61Cu]Cu-NODAGA-LM3 will be administered once intravenously at an amount of 20-40 μg (or 13-26 nmol) and an activity range of 150 MBq (±25%).
The control intervention will be [^68Ga]Ga-DOTA-TOC PET/CT (150 MBq (±25%)) (including CE-CT), is acquired as standard of care and not part of the study, but scan results will be used as comparator for the diagnostic efficacy analysis (Phase II).
The diagnostic efficacy analysis (sensitivity, tumor uptake and image contrast (TBR), will be done in comparison with [^68Ga]Ga-DOTA-TOC PET/CT acquired as standard of care in a randomized, cross-over order. Readers of the scans will be blinded for imaging time point, tracers and clinical data and will follow a locked-read methodology. Number of Participants and Rationale: n=27 patients (including 22 patients for the sensitivity analysis powered for both superiority and non-inferiority design and 5 patients with negative [^68Ga]Ga-DOTATOC PET/CT and a positive NETest)
• Whole-body [^61Cu]Cu-NODAGA-LM3 PET/CT scans will be performed at the investigative site. • [^61Cu]Cu-NODAGA-LM3 PET/CT scans will be acquired ˜1 h and ˜3 h post-injection (list-mode acquisition in 6 patients to determine optimal injected activity and signal-to-noise ratio). • Image Data are transferred from the site to ABX-CRO using the image transfer tool ABX-DIRECT. […] Scans will be read head-to-head by one board-certified nuclear medicine physician who will not be involved in the diagnostic efficacy analysis for measuring: • Normal organ distribution: regions of interest (ROI) will be drawn over the following organs, excluding focal lesions: pituitary gland, salivary glands, thyroid gland, lungs, liver, spleen, pancreas, small intestine, adrenal glands, kidney, urinary bladder, upper thoracic spine and 3rd to 5th lumbar vertebrae. […]

CC(O)C1NC(=O)C(CCCCN)NC(=O)C(Cc2ccc(NC(N)=O)cc2)NC(=O)C(Cc2ccc(O)cc2)NC(=O)C(NC(=O)C(Cc2ccc(Cl)cc2)NC(=O)CCC(C(=O)O)N2CCN(CC(=O)O)CCN(CC(=O)O)CC2)CSSCC(C(=O)NC(Cc2ccc(O)cc2)C(N)=O)NC1=O (stereo not drawn) [[^61Cu]Cu-NODAGA-LM3, metal not drawn] ({NODAGA}-[Phe(4-Cl)]CY[X1]KTCY-NH2; disulfide 2-7; configuration not given here)
lesion visualization vs ^68Ga-DOTATOC: visualizing more lesions, including small and new lesions, than ^68Ga-DOTATOC
tumor uptake vs ^68Ga-DOTATOC: higher tumor uptake
tumor-to-background ratio vs ^68Ga-DOTATOC: better tumor-to-background ratio
